Laboratory results: paper PMC3493487
The exact form of at least one protein or probe is not confirmed.

Biological target: I27-I27-p53NTR+DBD(1-293)-I27-I27 (Homo sapiens) (UniProt P04637)
Test: AFM single-molecule force spectroscopy (mechanical unfolding pattern changed by DNA)
Settings: 10 mM MgCl2, dsDNA:p53 molar ratio 1:2, 10:1 or 20:1; PBS (140 mM NaCl, 10 mM phosphate, 3 mM KCl, pH 7.4), 10 mM MgCl2, 10 mM DTT, room temperature (incubation on mica); 0.2-0.4 uM protein; recombinant protein; residues 1-293

CCTAGACATGCCTAAT (double strand) [16-mer p53 consensus half-site dsDNA]
binding result: binds
